The test system of series [1] is NF-kB p65 (RelA) + p300 coactivator. Kind of series: EMSA with antiserum (complex impaired). To be noted: nuclear extract, IL-1beta-stimulated, p300 antiserum impairs the complex, p300 probably bound through NF-kB; LightShift Chemiluminescent EMSA kit, 10 ug nuclear protein, 6% DNA retardation gel; pH and temperature not stated; protein in an extract; label: 5'-biotin. For orientation: In EMSA bound probe runs differently from free probe, usually more slowly.

By UniProt entry, the sequences of proteins in these tests, tags left out.
UniProt Q7TQN4, whole entry: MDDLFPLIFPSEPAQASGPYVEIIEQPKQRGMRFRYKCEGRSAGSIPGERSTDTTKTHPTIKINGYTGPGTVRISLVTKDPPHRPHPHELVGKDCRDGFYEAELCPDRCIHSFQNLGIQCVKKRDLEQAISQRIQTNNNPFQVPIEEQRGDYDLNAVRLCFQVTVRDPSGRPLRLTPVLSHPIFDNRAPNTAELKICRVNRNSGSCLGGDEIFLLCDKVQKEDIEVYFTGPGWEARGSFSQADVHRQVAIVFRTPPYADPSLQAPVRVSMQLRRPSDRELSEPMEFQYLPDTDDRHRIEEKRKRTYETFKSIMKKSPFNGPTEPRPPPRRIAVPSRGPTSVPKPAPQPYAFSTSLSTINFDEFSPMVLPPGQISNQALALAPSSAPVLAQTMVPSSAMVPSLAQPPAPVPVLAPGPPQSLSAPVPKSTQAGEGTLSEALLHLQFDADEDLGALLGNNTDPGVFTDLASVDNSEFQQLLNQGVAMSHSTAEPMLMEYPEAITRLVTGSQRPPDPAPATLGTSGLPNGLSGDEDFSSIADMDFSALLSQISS

The target in series [2] is NF-kB p65 (RelA) (rat (832/13 INS-1-derived insulinoma cells)) (UniProt Q7TQN4). As to the kind of experiment: EMSA with antiserum (complex impaired). To be noted: nuclear extract, IL-1beta-stimulated, diminished by 50x unlabeled oligo and by IkBa super-repressor; LightShift Chemiluminescent EMSA kit, 10 ug nuclear protein, 6% DNA retardation gel; pH and temperature not stated; protein in an extract; label: 5'-biotin.

Construct, isoform or probe ends are uncertain for at least one entry. Where cells or extracts were used, other partners may take part. For some assays here: At least one verdict was read from the data and is not stated in words by the source.

As to “GGTCTGGGAACTTCCAATACTGCCTCAGAATGGGAATTTCCACACT (double strand) [rat CCL2 promoter NF-kB probe]”, the binding result in series [1] and in series [2] was “binds” in each case.

Values taken from paper PMC3467264.
